# Assay results published in paper PMC12529230, “The Lrs14‐Like AbfR1 Homolog From Metallosphaera sedula Is a Nucleoid‐Organizing Protein” (MicrobiologyOpen, 2025).
# Residue numbers refer to the chain shown, from its start. For at least one entry, the source does not settle the construct or the ends of the probe. For some assays here: A weaker result is weaker than the reference pair of the same experiment. Tags and fusion partners may be left off the protein sequences shown. For some assays here: At least one verdict was read from the data and is not stated in words by the source.
# Legend:
# Assay in all cases: EMSA
# [1] = target: T1, AbfR1Ms (Metallosphaera sedula DSM5348) (UniProt A4YIR2); conditions: apparent, range over p/o probes, individual value only in Figure A6, salmon sperm competitor DNA; EMSA: 20 mM Tris-HCl pH 8.0, 50 mM NaCl, 0.4 mM EDTA, 0.1 mM DTT, 1 mM MgCl2, 12.5% glycerol, 25 ug/mL sonicated salmon sperm DNA, 25 min at 37 C; recombinant protein; residues 1-115; protein details: C-terminal His; label: 5'-32P on one strand
# T1 sequence (looked up): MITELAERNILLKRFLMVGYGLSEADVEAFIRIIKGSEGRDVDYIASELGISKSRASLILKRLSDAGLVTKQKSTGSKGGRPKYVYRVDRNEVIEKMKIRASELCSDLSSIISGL
# [2] = target: T2, AbfR1Sa K61A (Sulfolobus acidocaldarius) (UniProt Q4JBH1); conditions: apparent decrease in affinity vs wild type; EMSA: 20 mM Tris-HCl pH 8.0, 50 mM NaCl, 0.4 mM EDTA, 0.1 mM DTT, 1 mM MgCl2, 12.5% glycerol, 25 ug/mL sonicated salmon sperm DNA, 25 min at 37 C; recombinant protein; label: 5'-32P on one strand; probe letters rebuilt from the primers and the genome
# T2 sequence (looked up, limits assumed): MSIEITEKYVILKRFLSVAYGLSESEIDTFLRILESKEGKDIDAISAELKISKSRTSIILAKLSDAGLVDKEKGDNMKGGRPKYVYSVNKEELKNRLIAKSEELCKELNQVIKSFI
# [3] = target: T3, AbfR1Sa R55A (Sulfolobus acidocaldarius) (UniProt Q4JBH1); conditions: larger apparent decrease than K61A; EMSA: 20 mM Tris-HCl pH 8.0, 50 mM NaCl, 0.4 mM EDTA, 0.1 mM DTT, 1 mM MgCl2, 12.5% glycerol, 25 ug/mL sonicated salmon sperm DNA, 25 min at 37 C; recombinant protein; label: 5'-32P on one strand; probe letters rebuilt from the primers and the genome
# T3 sequence (looked up, limits assumed): T2 sequence (looked up, limits assumed) with R55A, A61K
Sequence,binding result [1],binding result [2],binding result [3]
AGTATAATATAAAACTTCATAAGAAAAACTGATAGATAAAAACTTTTTAAACTATTCGAGTTATATTTATGTGATTCTTATGCCACCCTTTAGTAGAGTT (double strand) [p/o accABMs],binds,–,–
CCCTTAATCTCCTTATTGCTTCGTCTAATCTATCCTGCTGCTCTTTTAATTTTAAAGATATTTCAGTTATCGCTTTGGACAAATGCACCTTTCTCTTTCTATCACTATTAAAAATTATCGATAACTTATCAAACATCCTATGTCACTAATTCTTCATAAAGTATTTATTACCCTTACTGGTATTGGAACAGACACTTCAGACTTATTACCCTCGTTCTTATTTGACTGTTCTGTTGACGTGTTTAATGAGGCAGAAGGCTTAAGTTCTATTACCTCCTTATCCAATCCGTCAAGTTTATCTAGAGTTTTCTTTATATCGTCTCTTTCCAATGCATAA (double strand) [p/o cdvA],–,binds more weakly,binds more weakly
CCTACAAAGGTTGCCTAATCACAATAAAACTTTAAAAACAATAAAAACTAAATGTTAAACGGTGCAATTTAATTGATAACTGAGCTCGCAGAAAGAAATA (double strand) [p/o abfR1Ms],binds,–,–
TACTCATGCACCGCCTTAGTGGGAAATATTAAATAAAAAACATTATATCTTAAATATCTTCTCATTTTAAACCATTTATCCTATAACTGTCACTTTTCCA (double strand) [p/o arlXSa],binds,–,–
